# In paper PMC6018630:
# By UniProt entry, the sequences of proteins in these tests, tags left out. Residues count along the entry.
# UniProt P47774, residues 25-378: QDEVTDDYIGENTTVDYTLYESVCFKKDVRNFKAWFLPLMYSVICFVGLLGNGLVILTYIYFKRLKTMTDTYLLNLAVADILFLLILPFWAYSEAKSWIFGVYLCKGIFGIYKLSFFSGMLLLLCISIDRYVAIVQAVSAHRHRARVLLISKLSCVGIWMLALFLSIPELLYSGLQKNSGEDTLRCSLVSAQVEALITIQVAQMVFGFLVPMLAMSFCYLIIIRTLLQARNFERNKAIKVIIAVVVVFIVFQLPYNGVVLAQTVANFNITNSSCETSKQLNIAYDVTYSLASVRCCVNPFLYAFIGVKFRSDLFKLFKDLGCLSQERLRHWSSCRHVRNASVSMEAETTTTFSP
# No constants are given. Whether binding was seen depends on the method and setting. In cells and extracts the contact can be indirect. Some results given as binding are weak or reduced against the parent protein; the word gives no strength.
# Target: CCR7 (mouse (endogenous in bone marrow-derived DCs)) (UniProt P47774)
# Experiment: FRET or BRET; flow-cytometric FRET between PE-labelled and APC-labelled anti-CCR7 (clone 4B12, 1:200, 45 min, 37 °C, Fc block) on BMDCs left unstimulated or stimulated with LPS or HDM, with or without 10 mM glucose or 10 mM 2-DG for 6 h; BD LSR Fortessa without compensation
substance,measurement,value
CCR7 (from UniProt P47774 25-378) (receptor),binding,binds
